No constants are given. Whether binding was seen depends on the method and setting. Some binding calls cover weakened binding; strength is not graded here.
What was measured:
[1] = molecular target: AXL on CHO-AXL cells (human) (UniProt P30530); test: flow cytometry (legend of FIG. 3)
[2] = molecular target: AXL on CHO-AXL cells (human) (UniProt P30530); test: flow cytometry on CHO-AXL cells at pH 6.0 and pH 7.4 (curves not assigned to a pH), IgG-Fc-PE secondary antibody, mean fluorescence intensity
[3] = molecular target: AXL on CHO-AXL cells (human) (UniProt P30530); test: flow cytometry on CHO-AXL cells, pH 6.0 and pH 7.4

Protein sequences, listed by entry. Tags and fused reporters are not part of them. Residues count along the entry.
UniProt P30530, residues 26-894: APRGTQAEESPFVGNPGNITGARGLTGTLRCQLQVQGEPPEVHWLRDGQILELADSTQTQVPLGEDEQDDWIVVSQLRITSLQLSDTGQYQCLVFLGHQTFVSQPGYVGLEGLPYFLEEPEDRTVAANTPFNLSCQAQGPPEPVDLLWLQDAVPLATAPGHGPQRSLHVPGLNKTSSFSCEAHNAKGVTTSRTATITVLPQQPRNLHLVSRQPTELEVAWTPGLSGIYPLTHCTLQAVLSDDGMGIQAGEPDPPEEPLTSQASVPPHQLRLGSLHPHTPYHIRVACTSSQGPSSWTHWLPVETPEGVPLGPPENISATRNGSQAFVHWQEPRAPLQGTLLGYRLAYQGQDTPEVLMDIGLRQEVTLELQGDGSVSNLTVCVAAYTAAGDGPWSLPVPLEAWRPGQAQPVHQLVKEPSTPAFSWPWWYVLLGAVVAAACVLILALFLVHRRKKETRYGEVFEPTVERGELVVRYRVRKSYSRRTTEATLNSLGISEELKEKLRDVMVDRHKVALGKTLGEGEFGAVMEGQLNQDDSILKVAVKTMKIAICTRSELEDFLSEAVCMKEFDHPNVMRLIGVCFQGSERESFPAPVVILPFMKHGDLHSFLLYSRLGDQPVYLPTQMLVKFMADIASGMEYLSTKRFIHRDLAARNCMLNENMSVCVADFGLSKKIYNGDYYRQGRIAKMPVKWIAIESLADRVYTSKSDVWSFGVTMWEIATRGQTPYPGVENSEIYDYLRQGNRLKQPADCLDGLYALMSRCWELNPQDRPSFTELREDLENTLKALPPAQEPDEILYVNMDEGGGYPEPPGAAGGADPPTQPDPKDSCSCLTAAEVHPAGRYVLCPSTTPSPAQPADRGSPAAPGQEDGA

Measured: binding

B1: Hu001-14 antibody (full-length human IgG1, kappa) (antibody, V domains shown)
VH: EVQLVQSGAEVKKPGASVKVSCKASGYTFTSYYMHWVRQAPGQGLEWMGIINPSGGSTSYAQKFQGRVTMTRDTSTSTVYMELSSLRSEDSAVYYCARDWYFDVWGAGTTVTVSA
VL: NIQMTQSPSSVSASVGDRVTITCRASQGISSWLAWYQQKPGKAPKLLIYAASSLQSGVPSRFSGSGSGTDFTLTISSLQPEDFATYYCQQANSFPFTFGGGTKVEIK
binds: all assays above

Reference: patent publication US20250019446A1
